# Data: PubChem BioAssay AID652054 (National Center for Advancing Translational Sciences (NCATS), 2013)
# Chains of the proteins cited; added tags and fusions are not shown.
# UniProt P35462, whole entry, looked up: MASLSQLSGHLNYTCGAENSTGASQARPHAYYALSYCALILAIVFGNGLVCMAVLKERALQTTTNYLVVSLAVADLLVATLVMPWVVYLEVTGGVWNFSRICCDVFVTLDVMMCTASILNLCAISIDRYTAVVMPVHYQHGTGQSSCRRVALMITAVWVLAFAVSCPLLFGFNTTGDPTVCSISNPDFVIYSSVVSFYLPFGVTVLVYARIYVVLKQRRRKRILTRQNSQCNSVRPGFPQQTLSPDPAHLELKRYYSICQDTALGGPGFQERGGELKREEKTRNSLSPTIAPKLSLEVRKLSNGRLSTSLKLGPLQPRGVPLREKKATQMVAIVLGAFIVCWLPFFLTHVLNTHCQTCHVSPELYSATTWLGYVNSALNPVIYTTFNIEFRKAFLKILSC
# Among all 360,000 compounds or so, about 9,100 (2.5%) were called active. The inconclusive results got no clear call from the source; some entries with a clear call stand among them for comparison. Cut-off read from the data, not from the text of the source: active = max response below about -50%; inconclusive = no clear call, values can overlap the other calls; inactive = above that.
# Target: D(3) dopamine receptor (Homo sapiens) (UniProt P35462)
# Assay: qHTS of D3 Dopamine Receptor Antagonist: qHTS
# Conditions: D3R cells, DiscoveRx beta-arrestin luminescence, antagonist mode; active compounds read low
# Procedure, shortened: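 Cells expressing the human receptor were seeded at 1500 cells/well, incubated overnight at 37 degrees C in 5% CO2, then exposed to library compounds with dopamine controls for 90 minutes at 37 degrees C before luminescent detection.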
# % is set by controls: 0 for no effect and ±100 for the full control effect.
row,Structure (SMILES),"max response, negative = inhibition"
1,Cc1ccc([C@H]2C[C@@H](O)[C@H](n3cc(C4CC4)nn3)CN2CC2CCCCC2)cc1,inactive: -18.7%
2,Cc1ccc(NC(=O)CSc2ccc3nnc(CCNC(=O)c4ccccc4)n3n2)c(C)c1,inactive: -8.28%
3,Cn1c(=O)[nH]c(=O)c2c1[nH]c(=S)n2CCCc1ccccc1,active: -53.7%
4,COc1ccc([C@H]2C=C(C(=O)O)O[C@@H](OCCCCO)C2)cc1,inconclusive: -39.3%
5,CC1(C)OC(=O)C(=CNc2ncccn2)C(=O)O1,active: -68.3%
6,CC1=CC2=NC(=O)/C(=C/c3cccn3Cc3ccccc3)C(=N)N2O1,inconclusive: -33.1%
7,Cc1ccc(C(O)c2ncc(-c3cccc4ccccc34)[nH]2)c(C)c1 (stereo unspecified),inconclusive: -31.9%
8,CC(C)(CN1CCc2ccccc2C1)NS(=O)(=O)c1ccc(Cl)cc1,inconclusive: -37.9%
9,Cc1ccc(N(CC(=O)NCc2ccc(F)cc2)C(=O)c2csnn2)c(C)c1,inconclusive: -31.9%
10,COc1ccc(NC(=O)CSCC(=O)Nc2ccccc2N2CCCC2)cc1,inconclusive: -43.8%
11,CC(C)(C)C1=NN=C2c3ccccc3C(=O)C21 (stereo unspecified),inactive: 8.57%
12,O=C(Cn1c(C(F)(F)F)nc2ccccc21)Oc1cccc(C(F)(F)F)c1,inconclusive: -38.9%
13,COc1ccccc1N(O)C1CC(=O)N(c2ccc(Br)cc2)C1=O (stereo unspecified),inactive: -16.9%
14,Cc1nc(C)c(-c2ccc(SCc3cccc(F)c3)nn2)s1,inactive: 2.99%
15,O=S(=O)(N/N=C1/CC(c2ccccc2)Oc2ccccc21)c1ccc(Br)cc1 (stereo unspecified),inactive: 22.2%
16,CCN1CCN(C(=O)Nc2cc(Cl)ccc2OC)CC1,inactive: -26.1%
17,O=C(c1ccccc1F)N1CCN(Cc2ccccc2F)CC1,active: -57.3%
18,O=S(=O)(c1ccc(OCC2CO2)cc1)c1ccc(OCC2CO2)cc1 (stereo unspecified),inconclusive: -48.8%
19,N/C(=N\OC(=O)/C=C/c1ccccc1Cl)c1cccnc1,inactive: 4.37%
20,COc1ccc(-c2cc(C(F)(F)F)n3nc(C(=O)N4CCCCC4)cc3n2)cc1OC,inactive: 9.25%
21,CCOC(=O)c1cc2c(ccn2C)n1CC(=O)N(Cc1ccccc1)c1ccccc1,inconclusive: -42.6%
22,CC(C)CNS(=O)(=O)c1ccc(NC(=O)Cn2nc(-c3ccc(F)cc3)ccc2=O)cc1,inconclusive: -32.4%
23,CC(C)C[C@@H](C)C(=O)N(Cc1ccccc1)c1ccccc1,inconclusive: -35.4%

row,Structure (SMILES),"max response, negative = inhibition"
1,O=C(c1cccnc1)N1CCN(Cc2ccccc2Br)CC1,active: -60.2%
2,O=C(/C=C1\C(=O)Nc2ccccc21)/C=C1\C(=O)Nc2ccccc21,inconclusive: -33.7%
3,CCCCCn1c(NCc2ccco2)nc2ccccc21,inactive: 0.62%
4,CC[C@]12c3[nH]c4ccc(Cl)cc4c3CCN1C(=O)[C@@H](CC(=O)NC/C=C(\C)CCC=C(C)C)C[C@@H]2C(=O)N1CCN(C(=O)C2CC2)CC1,inconclusive: -35.3%
5,Oc1cccc(C=NNc2ccccn2)c1,inactive: -0.707%
6,COc1ccc(/C=C/C(=O)Nc2ccccc2C(=O)NCC(c2ccc(OC)cc2)N(C)C)cc1 (stereo unspecified),active: -95.9%
7,Brc1ccc(/C=N/N2CCN(C3c4ccccc4-c4ccccc43)CC2)s1,inconclusive: -39.8%
8,COc1cccc(C(=O)Cn2c(=N)n(C)c3ccccc32)c1,inconclusive: -37.8%
9,CCOC(=O)CCCCC(=O)c1[nH]c(=O)[nH]c1CSCCO,inactive: 16.6%
10,CCN1CCN(Cc2ccc(NC(=O)c3cc(NC(=O)c4cc(C)on4)cc(OC)c3)cc2C(F)(F)F)CC1,inconclusive: -45.2%
11,CC(=O)NC(Cc1c[nH]c2ccccc12)C(=O)NCCc1ccccc1 (stereo unspecified),inconclusive: -39.2%
12,Cc1cccc(OCC(O)CNC(=O)c2ccccc2C(=O)O)c1 (stereo unspecified),inconclusive: -42.1%
13,Cc1ccc2c(c1)C(=O)N1[C@H]3c4ccccc4OC[C@@H]3[C@H](c3ccccc3)[C@]1(C)C(=O)N2,inconclusive: -44.3%
14,CCN1CCCC1CN(Cc1cc2ccc(C)cc2[nH]c1=O)C(=S)Nc1cccc(OC)c1 (stereo unspecified),active: -88.2%
15,COCCCN1C(=O)C(CC(=O)NCc2cccc3ccccc23)CC(C(=O)N(C(C)C)C(C)C)=C1C (stereo unspecified),inactive: -28.3%
16,O=C(CSCc1ccc(Cl)cc1)Nc1cccc(C(=O)O)c1,inactive: 12%
17,O=C(c1cccs1)N1CCc2ccccc21,inconclusive: -42.9%
18,Cc1cc(NC(=O)CSc2nc3c(sc4ccccc43)c(=O)n2CCCN2CCOCC2)n[nH]1,inactive: -8.08%
19,C/C(=N\O)C(=O)OC1CC(C)CCC1C(C)C (stereo unspecified),inconclusive: -42.6%
20,O=C(NNc1cccc([N+](=O)[O-])c1)/C(=C\c1cccnc1)NC(=O)c1ccccc1,inconclusive: -32.8%
21,O=C(Nc1ccccc1)C1=C[C@H](c2ccc(Br)cc2)C[C@H](OCc2ccc(CO)cc2)O1,inconclusive: -31.7%
22,COc1cccc(-c2nc(N3CCCCC3)c3ccccc3n2)c1O,inactive: 39.8%
23,Cc1cc(NCCO)nc(-n2nc(C)cc2C)n1,inactive: -25.4%

row,Structure (SMILES),"max response, negative = inhibition"
1,COc1ccccc1NC(=O)CSc1nc2nc(C)cc(C)c2c(=O)[nH]1,inconclusive: -43.6%
2,Cc1ccc(-c2nnn(CC(=O)NC3CCN(Cc4ccccc4)CC3)n2)cc1,inconclusive: -37.5%
3,OCCC1CN(Cc2ccc(Oc3ncccn3)cc2)CCN1Cc1ccc(F)c(F)c1 (stereo unspecified),active: -72.3%
4,Cn1c(CCNC(=O)c2ccccc2)nc2cc(NC(=O)c3ccco3)ccc21,inconclusive: -37.3%
5,Cc1onc(-c2ccccc2Cl)c1C(=O)NCc1ccccn1,active: -58.1%
6,O=S(=O)(Nc1nc2ccccc2s1)c1ccc(Cl)nc1,inactive: -8.73%
7,CSc1ccc(/C=C2\CCn3c2nc2cc(C(=O)O)ccc2c3=O)cc1,inconclusive: -44%
8,O=C(CSC1=NCCS1)N1CCc2ccccc21,inconclusive: -48.9%
9,CCOC(=O)c1c(CSc2ccc(CC)cc2)oc2ccc(O)c(CN(C)C)c12,active: -64.3%
10,CC(=O)Nc1cc(-c2cccc(F)c2)cn2c(-c3ccc(F)cc3)cnc12,inconclusive: -32.4%
11,c1ccc(Cn2nnnc2C(c2cccs2)N2CCOCC2)cc1 (stereo unspecified),inconclusive: -31.3%
12,CCCNC(=O)C1(C)CCN(C(=O)c2oc3ccccc3c2C)C1 (stereo unspecified),inactive: 0%
13,O=C(/C=C/Nc1ccc(F)c(Cl)c1)c1ccco1,inconclusive: -42.9%
14,COc1ccc(CCN(C)CCCN2CC(c3ccccc3)CC2=O)cc1OC (stereo unspecified),inconclusive: -39.1%
15,O=C(N/N=C/c1ccc(Br)s1)c1cccnc1,inconclusive: -42.9%
16,OCCNC(=S)Nc1ccc(Oc2ccccc2)cc1,inactive: 4.7%
17,COc1cc(C)c(Cl)cc1S(=O)(=O)NCCCN1CCOCC1,inconclusive: -34.4%
18,COc1ccc(NC(=O)COC(=O)c2ccc(OCc3ccc(Cl)cc3Cl)c(OC)c2)c(OC)c1,inactive: 12.5%
19,COC(=O)CC#N,inactive: 3.14%
20,O=S(=O)(c1ccc(F)cc1)N1CCC(N2CCCCCC2)CC1,active: -50.1%
21,CN1CCN(Cc2coc3c(Cl)cc(Cl)cc3c2=O)CC1,inactive: -16.9%
22,CCc1c(C(=O)Nc2ccncc2)csc1C,inactive: 13.7%
23,c1ccc(Nc2nc(N3CCOCC3)nc(N3CCOCC3)n2)cc1,inconclusive: -35.1%

row,Structure (SMILES),"max response, negative = inhibition"
1,Cc1ccccc1NC(=O)c1sc2nc3c(c(-c4ccco4)c2c1N)CCC3,inconclusive: -36.3%
2,COc1ccc2noc3c2c1C(=O)c1ccccc1-3,inactive: 17.5%
3,O=C(NC1CC2CCCC(C1)N2Cc1ccc(F)cc1)c1ccc(F)cc1 (stereo unspecified),active: -108%
4,Fc1ccc(SCCc2ccncc2)cc1,inconclusive: -32%
5,CC(C)(C)OC(=O)NC1CC2CCCC(C1)N2Cc1ccccc1 (stereo unspecified),active: -85.5%
6,COc1ccc(N(/N=C2\Sc3ccccc3C2=O)C(C)=O)cc1,inconclusive: -47.7%
7,O=C1CCC(C(=O)N2CCCCO2)CN1Cc1ccc(Cl)cc1 (stereo unspecified),inconclusive: -30%
8,O=c1c2[nH]c3ccccc3c2ncn1Cc1ccncc1,inconclusive: -33.5%
9,COc1ccc(N=c2ssnc2Cl)cc1,active: -55.2%
10,COc1ccccc1CNc1ncnc2cc(OC)c(OC)cc12,inactive: 1.37%
11,COC(=O)c1cccc(-n2sc3ccccc3c2=O)c1,active: -59.7%
12,CCOc1cc(N2CCOCC2)c(OCC)cc1NC(=O)[C@H](C)NC(=O)c1ccco1,inactive: -2.02%
13,CCOc1ccc2nc(CN3CCN(Cc4ccccc4OCC)C(CCO)C3)ccc2c1 (stereo unspecified),inconclusive: -32.6%
14,COc1ccc(NC(=S)NC(=O)c2cccnc2)cc1,inconclusive: -42.9%
15,O=C(c1ccc(Cl)cc1)C(CN1CCCC1)c1ccccc1 (stereo unspecified),inconclusive: -41%
16,CSc1nc(N)nc2c1ncn2CC(=O)NCc1ccc2[nH]ccc2c1,inactive: 13%
17,CC(C)N(C(=O)c1sc2cc([N+](=O)[O-])ccc2c1Cl)C(C)C,inconclusive: -35.9%
18,CC(C)(C)CNC(=O)c1cccc2c1C(=O)c1ccc(-c3cc4ccccc4o3)cc1S2(=O)=O,inactive: 27.1%
19,Cc1ccc(S(=O)(=O)N2CCN(C(=O)CN3CCCSc4ccccc43)CC2)cc1,active: -55%
20,CCN1CCN(c2ccc(S(=O)(=O)N3CCCC3)cn2)CC1,inconclusive: -34.6%
21,ON1C(c2ccccc2)CC2(O)c3nonc3CCC12 (stereo unspecified),inconclusive: -37.4%
22,COC(=O)N(C)C[C@H]1OCc2cnnn2CCCC(=O)N([C@@H](C)CO)C[C@@H]1C,inconclusive: -30.9%

# Looked up above.
# CSc1nc(N)nc2c1ncn2CC(=O)NCc1ccc2[nH]ccc2c1 – max response, negative = inhibition: inactive: 13%
# O=C(NC1CC2CCCC(C1)N2Cc1ccc(F)cc1)c1ccc(F)cc1 (stereo unspecified) – max response, negative = inhibition: active: -108%
# Cc1ccc(S(=O)(=O)N2CCN(C(=O)CN3CCCSc4ccccc43)CC2)cc1 – max response, negative = inhibition: active: -55%
# CCN1CCN(c2ccc(S(=O)(=O)N3CCCC3)cn2)CC1 – max response, negative = inhibition: inconclusive: -34.6%
